{"source": "paper PMC9698323", "about": "“Interaction of Destruxin A with Three Silkworm Proteins: BmCRT, BmDPP3, and BmPDIA5” (Molecules, 2022)", "target": "protein disulfide isomerase A5 (BmPDIA5) (silkworm (Bombyx mori))", "assay": "two-hybrid; insect two-hybrid (I2H) in Sf9 cells transfected with pIE2-AD and pIE2-DBD expression vectors; luciferase luminescence against cells not transfected; cells also treated with Destruxin A (0.002-20 mg/L), which lowered the signal at 0.2 mg/L and above", "note": "No constants are given. Whether binding was seen depends on the method and setting. Binding can be weak; no strength is given."}
{"binder": "calreticulin (BmCRT) (protein, UniProt Q7Z1E6 1-398) MKAVVLVVVSLLALSSINCDVFFEEKFPDDSWESNWVYSEHPGKEFGKFKLTAGKFFSDPEDDKGLKTSEDARFYALSRKFKPFSNEGKPLVVQFTVKHEQDIDCGGGYLKVFDCKLEQKDMHGETPYEIMFGPDICGPGTKKVHVIFSYKGKNHLIKKDIRCKDDVYTHLYTLIVKPDNTYEVLIDNEKVESGDLEADWDFLPNKKIKDPEAKKPEDWDDKPTIPDPEDKKPEDWDKPEHIPDPDATKPEDWDDEMDGEWEPPMIDNPDYKGVWAPKQIDNPAYKGPWVHPEIDNPEYTPDSNLYKRDEICAVGLDLWQVKSGTIFDDFLITDDPAAAKERGEVIKKRQEGEKKMKSEQDEAEREKEKAEKPDDEEDDEDLDDETGDAAPVEEHDEL", "values": [{"measurement": "binding", "result": "binds"}]}
